Source: patent US20180326005A1 (HEAT BIOLOGICS, published 2018)
These are yes or no findings as the source states them, for the method shown. Some entries that bind do so weakly or less than the wild type. For some assays here: Where a sequence is shown, tags or fusion partners need not be part of it.

Amino acid sequences for entries named in this document (tags omitted). A change or cut given only in a name is not applied to a line headed by its entry.
UniProt Q02242: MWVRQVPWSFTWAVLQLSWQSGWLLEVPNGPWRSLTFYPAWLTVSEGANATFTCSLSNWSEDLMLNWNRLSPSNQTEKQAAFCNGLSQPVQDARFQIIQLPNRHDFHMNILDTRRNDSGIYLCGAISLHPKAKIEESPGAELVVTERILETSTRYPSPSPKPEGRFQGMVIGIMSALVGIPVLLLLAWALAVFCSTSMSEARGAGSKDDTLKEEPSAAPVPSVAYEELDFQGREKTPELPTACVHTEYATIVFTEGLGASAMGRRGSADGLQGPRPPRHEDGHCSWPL

Experiments:
mOX40-His (mouse) [1] = target: T1, mOX40-His (mouse) (UniProt P47741); assay: sandwich ELISA: plate-bound mPD-L1, mPD1-Fc-OX40L at 2000 to 0 ng/mL, detection with mOX40-His and rabbit anti-His-HRP
T1 sequence (looked up): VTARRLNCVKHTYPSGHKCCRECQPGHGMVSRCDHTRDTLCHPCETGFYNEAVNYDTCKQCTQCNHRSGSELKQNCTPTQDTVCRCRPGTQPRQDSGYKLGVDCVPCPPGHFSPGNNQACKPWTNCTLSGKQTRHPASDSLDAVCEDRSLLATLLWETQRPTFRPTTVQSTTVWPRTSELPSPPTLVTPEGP

mOX40-His (mouse) [2] = target: T1, mOX40-His (mouse); assay: functional ELISA, serial dilution of purified protein
[3] = target: T2, recombinant mOX40 fused to human Fc (mouse) (UniProt P47741); assay: ELISA: plate-bound mOX40-hFc, two-fold dilutions of CHO-K1 culture medium, detection with rabbit anti-mPD-1 and anti-rabbit IgG-HRP
T2 sequence (looked up): T1 sequence (looked up)

mOX40-His (mouse) [4] = target: T1, mOX40-His (mouse); assay: sandwich ELISA, capture mPD-L1-Fc, detection mOX40-His and His-HRP
[5] = target: T3, mouse OX40 on cells (activated CD4+ splenocytes) (mouse) (UniProt P47741); assay: flow cytometry on activated mouse splenocytes
T3 sequence (looked up): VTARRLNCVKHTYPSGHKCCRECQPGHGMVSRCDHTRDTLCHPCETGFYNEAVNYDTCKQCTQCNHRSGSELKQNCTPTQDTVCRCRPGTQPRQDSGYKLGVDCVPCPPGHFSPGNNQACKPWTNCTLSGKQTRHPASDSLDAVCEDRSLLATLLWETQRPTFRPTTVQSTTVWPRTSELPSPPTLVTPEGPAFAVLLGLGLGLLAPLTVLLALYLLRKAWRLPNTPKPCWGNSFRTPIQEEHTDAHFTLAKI

[6] = target: T2, recombinant mOX40 fused to human Fc (mouse); assay: ELISA, capture on plate-bound mOX40-hFc, anti-mPD-1 detection
[7] = target: T3, mouse OX40 on cells (activated CD4+ splenocytes) (mouse); assay: flow cytometry, activated primary mouse splenocytes, Fc-PE detection; 500 ng/mL according to paragraph 210
[8] = target: T3, mouse OX40 on cells (activated CD4+ splenocytes) (mouse); assay: flow cytometry (Fc-PE), activated splenocytes, 500 ng/mL

Measured: binding

mouse PD-1-Fc-OX40L (from UniProt Q02242 25-169; P01868 98-324; P43488 51-198) (Fc fusion)
binds: all assays above
